Measured values from PubChem BioAssay AID587 (National Center for Advancing Translational Sciences (NCATS), 2007).
Among all 59,000 compounds or so, about 35 (0.06%) were called active. Inconclusive means that the source gave no clear call. Such entries were picked first, then a sample of the others. Rule as the data show it: active = max dye-equivalent concentration above about 10 nM; inconclusive = between about 1.1 nM and that limit; inactive = weaker than that.

assay: qHTS Assay for Spectroscopic Profiling in Texas Red Spectral Region; settings: Compound fluorescence, Texas Red channel, 547/618 nm; active compounds read high
Procedure, shortened: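 Pin-transferred compounds and Texas Red standards go into 100 mM Tris buffer, pH 8.0. After 15 min at room temperature, plates are imaged with 547/618 nm filters. Each value is a dye-equivalent concentration derived from the per-plate dye curve.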

Row | Compound | max dye-equivalent concentration
1 | CN(C)S(=O)(=O)c1ccc(S(=O)(=O)N(CC(=O)Nc2ccccc2)Cc2ccco2)cc1 | inconclusive: 1.8 nM
2 | CCN1CCN(/C=N/c2nc3c(s2)CCCC3)CC1 | inconclusive: 1.6 nM
3 | COCCCNC(=O)c1cc2c(=O)n3cccc(C)c3nc2n(C(C)C)c1=N | inconclusive: 2.3 nM
4 | OC(Cc1ccccc1)(Cc1ccccc1)c1ccccc1 | inactive
5 | Cc1[nH]n2c(=O)c(C#N)c(-c3ccccc3)nc2c1-c1ccccc1 | inconclusive: 1.1 nM
6 | CCC(c1nnnn1CCc1ccccc1)N1CCN(c2ccc(OC)cc2)CC1 (centres undefined) | inconclusive: 1.1 nM
7 | CCc1nc2oc3cc(OC)ccc3c(=O)c2c(=O)n1-c1ccccc1 | inconclusive: 1.4 nM
8 | O=C(NCCN1CCc2ccccc2C1)C1CCN(S(=O)(=O)N2CCCCC2)CC1 | inconclusive: 2.4 nM
9 | CCn1c2ccccc2c2nc3cc(S(=O)(=O)N4CCOCC4)ccc3nc21 | inconclusive: 1.6 nM
10 | CCOP(=O)(c1ccc(N(C)C)cc1)C(O)c1c(Cl)cccc1Cl (centres undefined) | inconclusive: 1.4 nM
11 | Cc1ccc2cc(CN(C(=O)C3CCCO3)C3CCCCC3)c(=O)[nH]c2c1 (centres undefined) | inconclusive: 1.6 nM
12 | CCN(CC)CCNC(=O)CCCCn1c(=S)[nH]c2c([nH]c3ccc(OC)cc32)c1=O | inconclusive: 1.3 nM
13 | C=CCC(NCCCO)c1cccc(OC)c1OC (centres undefined) | inconclusive: 1.1 nM
14 | COc1cc(CCC(=O)OCC(=O)Nc2ncc(Cl)cc2Cl)cc(OC)c1OC | inconclusive: 1.1 nM
15 | CCn1c(SCC(=O)N2CCC(C(N)=O)(N3CCCCC3)CC2)nc2ccccc2c1=O | inconclusive: 1.4 nM
16 | CC(C)(C)c1nnc(NC(=O)CN2C(=O)C3C4C=CC(C4)C3C2=O)s1 (centres undefined) | inconclusive: 1.1 nM
17 | COc1ccc(S(=O)(=O)N2CCN(C(=O)NCc3ccccc3)CC2)cc1 | inconclusive: 1.4 nM
18 | CCOC(=O)c1sc(NC(NC(=O)c2ccco2)(C(=O)OC)C(F)(F)F)nc1C (centres undefined) | inconclusive: 1.3 nM
19 | COc1ccc(N2CCN(c3ccc(NC(=O)c4ccc5c(c4)OCO5)cc3C#N)CC2)cc1 | inconclusive: 1.4 nM
20 | COc1cc(NC(=O)C2CCN(S(=O)(=O)c3ccc(Cl)cc3)CC2)ccc1-n1cnnn1 | inconclusive: 2.2 nM
21 | CCNc1ncc2nc(-c3cc(F)cc(F)c3)c(=O)n(CCC#N)c2n1 | inconclusive: 1.3 nM

Row | Compound | max dye-equivalent concentration
22 | O=C(Nc1cc(C(F)(F)F)ccc1N1CCOCC1)c1ccco1 | inconclusive: 2 nM
23 | O=C(c1ccccc1)c1cccn1CC(=O)N1CCN(C2CCCCC2)CC1 | inconclusive: 1.6 nM
24 | Cc1cccc2cc(CN(Cc3ccc(F)cc3)C(=O)N(C)C)c3nnnn3c12 | inconclusive: 2.4 nM
25 | N=C(N)SCCc1ccc(CCSC(=N)N)cc1 | inconclusive: 1.2 nM
26 | CCOC(=O)C1=C(CC)Nc2ccccc2N=C1NC(=O)Cn1cnc2ccccc2c1=O | inconclusive: 1.8 nM
27 | Cc1ccc(Cn2ncc3c(N4CCN(c5ccccc5C)CC4)ncnc32)cc1 | inconclusive: 1.2 nM
28 | O=C(NCC1COc2ccccc2O1)c1ccccc1 (centres undefined) | inconclusive: 1.1 nM
29 | CCOC(=O)C1CCN(c2nc3ccccc3nc2C(C#N)C(=O)OC(C)C)CC1 (centres undefined) | inactive
30 | N=C(N)SCC(=O)O | inactive
31 | CCOc1ccc(N2CC(=O)Nc3ccccc3NCC2=O)cc1 | inconclusive: 1.2 nM
32 | COc1cccc(C2=NO[C@@H]3C(=O)N(Cc4ccccc4)C(=O)[C@H]23)c1OC | inconclusive: 1.4 nM
33 | COc1ccc(S(=O)(=O)N2CCN(S(=O)(=O)c3ccc4c(c3)OCCO4)CC2)cc1C | inconclusive: 1.2 nM
34 | Cc1cccc(NS(=O)(=O)c2ccc(C)c(C(=O)OCC(=O)Nc3cc(C)on3)c2)c1 | inconclusive: 1.3 nM
35 | C=CCN1C(=O)CS/C1=N/c1nccs1 | inconclusive: 2.5 nM
36 | CCC(=O)Nc1ccc(NC(=O)c2ccccn2)cn1 | inconclusive: 1.3 nM
37 | CCN(CC)CCNC(=O)C1CCN(S(=O)(=O)N2CCCCC2)CC1 | inconclusive: 1.1 nM
38 | COc1ccc(C(c2nnnn2C2CCCCC2)N2CCN(c3ccc(OC)cc3)CC2)cc1 (centres undefined) | inconclusive: 1.1 nM
39 | O=C(CCCN1CCC(O)(c2ccc(Cl)cc2)CC1)c1ccc(F)cc1 | inconclusive: 1.1 nM
40 | COc1ccc(-c2noc(COc3ccc(C)c(C)c3)n2)cc1OC | inconclusive: 1.2 nM
41 | C=CCOC(=O)C1=C(C)NC(SC)=C(C#N)C1c1ccc(OCC)cc1 (centres undefined) | inconclusive: 1.1 nM
42 | Cn1nnc(NC(=O)CSc2ccc(Cl)cc2)n1 | inconclusive: 1.7 nM

Row | Compound | max dye-equivalent concentration
43 | Cc1cc(C)n(-c2ccc(C(=O)Nc3ccccc3N3CCOCC3)cc2)n1 | inconclusive: 1.3 nM
44 | O=C(CN1CCc2ccccc21)NC(=O)NCc1ccco1 | inconclusive: 1.4 nM
45 | O=C(Nc1nnc(CCN2CCCCC2)s1)C1CCCCC1 | inconclusive: 2.2 nM
46 | Cc1ccc(-n2c(N)c(C(=O)N3CCOCC3)sc2=S)cc1 | inconclusive: 1.1 nM
47 | COc1ccc(NC(=O)CN(c2ccc(C)cc2)S(=O)(=O)c2c(C)nn(C)c2C)cc1OC | inconclusive: 1.6 nM
48 | O=C(CCN1CCOCC1)Nc1ccc2c(c1)CCC2 | inconclusive: 1.4 nM
49 | Cc1nc2c([nH]1)C1(CCN(Cc3ccccc3)CC1)C(C#N)=C(N)O2 | inconclusive: 1.1 nM
50 | C=CCn1cnc2c(c1=O)c1nc3ccccc3nc1n2/N=C/c1cc(OC)c(OC)c(OC)c1 | inconclusive: 1.1 nM
51 | Cc1c(-c2ccccc2)nc(N)c(C#N)c1-c1ccco1 | inconclusive: 1.3 nM
52 | COc1ccc(CCn2c(NCc3ccco3)nc3c2c(=O)[nH]c(=O)n3C)cc1 | inconclusive: 1.2 nM
53 | COc1ccc(C(=O)N2CCN(C3CCC(c4ccccc4)CC3)CC2)cc1OC (centres undefined) | inconclusive: 1.8 nM
54 | COc1ccc(S(=O)(=O)N[C@H](C(=O)N2CC[C@@]3(O)CCCC[C@H]3C2)c2ccccc2)cc1 | inconclusive: 1.1 nM
55 | CCCCCNC(=O)C(C)NS(=O)(=O)c1ccc(OC)cc1 (centres undefined) | inconclusive: 1.1 nM
56 | CCc1cc(=O)oc2cc(C)c3c(C)coc3c12 | inconclusive: 1.3 nM
57 | Cn1c(CN2CCCCC2)c(C#N)c2ccccc21 | inactive
58 | CCOC(=O)C(NCCCO)c1ccccc1 (centres undefined) | inconclusive: 1.9 nM
59 | Cc1ccc(-c2noc(CN(C(=O)c3cccs3)C(C)C)n2)cc1 | inconclusive: 1.9 nM
60 | CC1Cc2ccccc2N1C(=O)Cn1cnc2ccccc2c1=O (centres undefined) | inconclusive: 1.9 nM
61 | COc1ccc(C2CC(=O)c3cnc(NC(=O)c4ccccc4)nc3C2)c(OC)c1 (centres undefined) | inconclusive: 1.2 nM
62 | Cc1cc2ncn(CC(O)COc3cccc(C(=O)O)c3)c2cc1C (centres undefined) | inconclusive: 1.9 nM
63 | O=c1c(-c2ccc(F)cc2)nc2cnc(N3CCOCC3)nc2n1-c1ccccc1 | inactive

Row | Compound | max dye-equivalent concentration
64 | CCOC(=O)N1CCC(Nc2nc3ccccc3n3nnnc23)CC1 | inactive
65 | Nc1nonc1C(=O)NCCNCc1cc(Br)ccc1OCc1ccccc1F | inconclusive: 1.4 nM
66 | O=S1(=O)CCC(N=Cc2cc(Br)ccc2O)C1 (centres undefined) | inconclusive: 1.4 nM
67 | COc1ccc(CNC(=O)C(C)OC(=O)c2cccn2C)cc1 (centres undefined) | inconclusive: 1.1 nM
68 | CC(=O)[C@@H]1[C@@H]2C(=O)N(Cc3ccccc3)C(=O)[C@@H]2C2c3ccccc3C=CN21 (some centres undefined) | inactive
69 | O=C(c1coc2ccccc2c1=O)N1CCN(c2cccc(C(F)(F)F)c2)CC1 | inconclusive: 1.7 nM
70 | O=C(CSc1nc(O)cc(=O)n1-c1ccccc1)N1CCCCC1 | inconclusive: 1.1 nM
71 | O=S(=O)(NCCc1ccccn1)c1cccs1 | inconclusive: 1.5 nM
72 | COC(=O)CCc1c(C)c(C#N)c2nc3ccccc3n2c1N1CCCC1 | inconclusive: 1.9 nM
73 | CN(C)CCN(Cc1ccc(Cl)cc1)c1ccccn1 | inconclusive: 1.3 nM
74 | NC(=O)CSc1nnc(-c2ccc(S(=O)(=O)N3CCOCC3)cc2)n1CC1CCCO1 (centres undefined) | inconclusive: 1.7 nM
75 | Cc1cc(NC(=O)COC(=O)C(Cc2ccccc2)NC(=O)c2ccco2)no1 (centres undefined) | inconclusive: 1.8 nM
76 | N#CC1=C(N)SC(N)=C(C#N)C1CCc1ccccc1 | inactive
77 | CCSc1nnc(NC(=O)CN(C)S(=O)(=O)c2ccc(F)cc2)s1 | inconclusive: 1.1 nM
78 | COc1ccc2c(c1)C(=O)N(CCc1ccc(S(=O)(=O)NC(=O)NC3CCCCC3)cc1)C(=O)C2(C)C | inconclusive: 1.4 nM
79 | Cc1ccc(C(=O)NC=C(Cl)Cl)cc1 | inconclusive: 1.4 nM
80 | C=CCn1c(C#N)c(N)sc1=N | inconclusive: 1.2 nM
81 | Cc1cc(NC(=O)CSc2cn(CCNC(=O)c3ccc(F)cc3)c3ccccc23)no1 | inconclusive: 1.8 nM
82 | COC(=O)[C@@H]1[C@@H]2C[C@H]3c4[nH]c5ccccc5c4CCN3C[C@@H]2CC[C@@H]1OS(=O)(=O)O | inactive
83 | Cc1c(/C(O)=C2/C(=O)C(=O)N(CCN3CCOCC3)C2c2ccco2)cnn1-c1ccccc1 (centres undefined) | inconclusive: 1.1 nM
84 | O=C(O)c1cc2c(cc1S(=O)(=O)O)[C@H]1[C@@H]([C@H]3[C@H]2[C@@]2(Cl)C(Cl)=C(Cl)[C@]3(Cl)C2(Cl)Cl)[C@]2(Cl)C(Cl)=C(Cl)[C@@]1(Cl)C2(Cl)Cl | inactive
